Measurements reported in PubChem BioAssay AID1259304 (Sanger Institute, 2017)
The deposit covers 160 reagents; this is a random part of them. 88 of them (55%) were called active. 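Four siRNAs per gene, each called on its own in one cell line; calls are not confirmed gene-level hits.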 The numbers tell different reagents against one gene apart. Further read-outs or replicates are left out here. No sequences are given here. Not given: the amount of reagent, the time to read-out.

Test: 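Kinase siRNAs that act in synergy with BYL719, cetuximab or trametinib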 (secondary deconvolution rescreen of primary hits)
Cell system: HT115 human colorectal cancer cells
Reagent: single siRNA against human genes
Treatment: anchor drugs BYL719 at 1 µM, cetuximab at 5 µg/ml or trametinib at 10 nM, each set against DMSO vehicle
Read-out: 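Viability compared with non-targeting control wells, mean of replicates, and a synergy score comparing the drug-plus-siRNA effect with each effect alone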
Direction: synergy score with BYL719: higher = stronger synthetic lethal interaction with BYL719; synergy score with cetuximab: higher = stronger synthetic lethal interaction with cetuximab; synergy score with trametinib: higher = stronger synthetic lethal interaction with trametinib
Call rule: 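Called active when the synergy score is above 0.10 for any of BYL719, cetuximab or trametinib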
Meaning of the calls: active = synergy with at least one anchor drug; inactive = no synergy with any anchor drug

The opening 3 records as a preview:
no.	gene symbol	reagent	synergy score with BYL719	synergy score with cetuximab	synergy score with trametinib	Call
1	MAPKAPK2 (GeneID 9261)	1	0.0387	0.0765	0.142	active
2	MAPKAPK2 (GeneID 9261)	2	-0.0419	-0.0698	-0.0623	inactive
3	MAPKAPK2 (GeneID 9261)	3	-0.0104	-0.0509	-0.128	inactive

Main list, from the start:
no.	gene symbol	reagent	synergy score with BYL719	synergy score with cetuximab	synergy score with trametinib	Call
1	MAPKAPK2 (GeneID 9261)	1	0.0387	0.0765	0.142	active
2	MAPKAPK2 (GeneID 9261)	2	-0.0419	-0.0698	-0.0623	inactive
3	MAPKAPK2 (GeneID 9261)	3	-0.0104	-0.0509	-0.128	inactive
4	MAPKAPK2 (GeneID 9261)	4	-0.0268	0.056	0.0575	inactive
5	KCNH8 (GeneID 131096)	1	-0.104	0.185	0.393	active
6	KCNH8 (GeneID 131096)	2	-0.000373	0.00787	0.169	active
7	KCNH8 (GeneID 131096)	3	-0.149	-0.00735	0.0165	inactive
8	KCNH8 (GeneID 131096)	4	-0.0309	0.0579	0.155	active
9	CDK6 (GeneID 1021)	1	0.0208	0.0821	0.271	active
10	CDK6 (GeneID 1021)	2	0.0178	0.0483	0.203	active
11	CDK6 (GeneID 1021)	3	0.122	0.0958	0.0883	active
12	CDK6 (GeneID 1021)	4	0.059	0.192	0.253	active
13	PFKFB3 (GeneID 5209)	1	0.13	0.0211	0.0939	active
14	PFKFB3 (GeneID 5209)	2	0.122	0.169	0.279	active
15	PFKFB3 (GeneID 5209)	3	-0.162	-0.0176	-0.0155	inactive
16	PFKFB3 (GeneID 5209)	4	-0.132	0.00632	-0.0123	inactive
17	SYK (GeneID 6850)	1	0.0424	-0.0674	0.0771	inactive
18	SYK (GeneID 6850)	2	-0.078	0.0817	0.0911	inactive
19	SYK (GeneID 6850)	3	0.0911	-0.0429	0.257	active
20	SYK (GeneID 6850)	4	0.0362	-0.116	0.0755	inactive
21	RPS6KA4 (GeneID 8986)	1	-0.147	0.00109	0.0379	inactive
22	RPS6KA4 (GeneID 8986)	2	0.254	-0.0142	0.31	active
23	RPS6KA4 (GeneID 8986)	3	0.0629	0.0359	0.188	active
24	RPS6KA4 (GeneID 8986)	4	0.0223	0.124	0.236	active
25	AK2 (GeneID 204)	1	-0.0944	0.13	0.109	active
26	AK2 (GeneID 204)	2	0.0222	0.0984	0.307	active
27	AK2 (GeneID 204)	3	-0.138	-0.146	0.049	inactive
28	AK2 (GeneID 204)	4	0.0181	0.192	0.368	active
29	CAMK2N1 (GeneID 55450)	1	0.0113	-0.113	0.0537	inactive
30	CAMK2N1 (GeneID 55450)	2	0.764	0.0431	0.141	active
31	CAMK2N1 (GeneID 55450)	3	0.159	0.149	0.0912	active
32	CAMK2N1 (GeneID 55450)	4	-0.136	-0.0848	-0.113	inactive
33	IRAK3 (GeneID 11213)	1	-0.0617	0.018	0.189	active
34	IRAK3 (GeneID 11213)	2	-0.183	0.117	0.11	active
35	IRAK3 (GeneID 11213)	3	0.163	-0.00334	0.16	active
36	IRAK3 (GeneID 11213)	4	-0.0548	-0.00376	0.143	active
37	MPP3 (GeneID 4356)	1	-0.0942	-0.0585	0.0185	inactive
38	MPP3 (GeneID 4356)	2	0.0273	0.0482	0.0385	inactive
39	MPP3 (GeneID 4356)	3	0.224	0.251	0.427	active
40	MPP3 (GeneID 4356)	4	-0.00131	0.0978	0.276	active
41	PIM1 (GeneID 5292)	1	0.0218	0.0668	0.0311	inactive
42	PIM1 (GeneID 5292)	2	0.0871	0.0821	0.208	active
43	PIM1 (GeneID 5292)	3	-0.0105	-0.142	0.0541	inactive
44	PIM1 (GeneID 5292)	4	-0.108	-0.0665	0.11	active
45	PIK3CA (GeneID 5290)	1	-0.111	0.0744	-0.0312	inactive
46	PIK3CA (GeneID 5290)	2	-0.126	0.104	0.221	active
47	PIK3CA (GeneID 5290)	3	-0.11	-0.111	0.0497	inactive
48	PIK3CA (GeneID 5290)	4	-0.114	-0.0421	0.244	active
49	EPHA6 (GeneID 285220)	1	-0.0195	0.0161	0.106	active
50	EPHA6 (GeneID 285220)	2	0.101	-0.0702	0.0596	active
51	EPHA6 (GeneID 285220)	3	-0.145	-0.176	-0.0248	inactive
52	EPHA6 (GeneID 285220)	4	0.0272	-0.0121	0.273	active
